Data source: PubChem BioAssay AID504774 (Drosophila RNAi Screening Center, 2011)

Assay: 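Genes required for cells to withstand methyl methanesulphonate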 (primary screen)
Cells: Drosophila Kc167 cells
Reagent: long dsRNA against Drosophila genes, about 0.25 µg dsRNA per well
Time to read-out: about 6 days: 3 days knock-down, then 3 days with or without MMS
Conditions: methyl methanesulphonate 0.004% (w/v) for 3 days after knock-down
Read-out: 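Viability in wells given MMS, read as ATP luminescence, normalised by quantiles plate by plate and averaged across replicates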
Scale: mean viability with MMS and viability with MMS: higher = more surviving cells after MMS
The screen tested about 23,000 reagents; shown is an unselected part of those with a known target gene and a result. 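Values are quantile-normalised luminescence on an arbitrary scale; higher means more cells surviving MMS.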 The numbers tell different reagents against one gene apart. Names joined by + are all predicted targets of the reagent. Not all columns of the deposit are shown.

CG42699 #1 | mean viability with MMS = 3.63e6; viability with MMS, replicate 1 = 4.10e6
CG42699 #2 | mean viability with MMS = 3.49e6; viability with MMS, replicate 1 = 3.99e6
CG11298 | mean viability with MMS = 3.24e6; viability with MMS, replicate 1 = 3.70e6
CG5886 | mean viability with MMS = 3.56e6; viability with MMS, replicate 1 = 4.09e6
CG1998 | mean viability with MMS = 3.63e6; viability with MMS, replicate 1 = 4.02e6
CG4116 | mean viability with MMS = 3.46e6; viability with MMS, replicate 1 = 3.99e6
moon (moonshiner) | mean viability with MMS = 3.45e6; viability with MMS, replicate 1 = 3.90e6
wwk (white walker) | mean viability with MMS = 3.63e6; viability with MMS, replicate 1 = 4.13e6
CR42546 (pseudo) | mean viability with MMS = 3.54e6; viability with MMS, replicate 1 = 4.11e6
Vago | mean viability with MMS = 3.67e6; viability with MMS, replicate 1 = 4.14e6
sut3 (sugar transporter 3) | mean viability with MMS = 3.71e6; viability with MMS, replicate 1 = 4.07e6
Arp10 (Actin-related protein 10) | mean viability with MMS = 3.46e6; viability with MMS, replicate 1 = 3.85e6
Cnx99A + Cnx14D | mean viability with MMS = 3.64e6; viability with MMS, replicate 1 = 4.02e6
sws (swiss cheese) | mean viability with MMS = 3.28e6; viability with MMS, replicate 1 = 3.71e6
Dfd (Deformed) | mean viability with MMS = 3.71e6; viability with MMS, replicate 1 = 4.28e6
lncRNA:roX1 (long non-coding RNA on the X 1) | mean viability with MMS = 3.57e6; viability with MMS, replicate 1 = 4.07e6
mthl6 (methuselah-like 6) | mean viability with MMS = 3.65e6; viability with MMS, replicate 1 = 4.21e6
CG14506 | mean viability with MMS = 3.58e6; viability with MMS, replicate 1 = 3.99e6
Vml (Vitelline membrane-like) #1 | mean viability with MMS = 3.52e6; viability with MMS, replicate 1 = 4.02e6
Vml (Vitelline membrane-like) #2 | mean viability with MMS = 3.39e6; viability with MMS, replicate 1 = 3.71e6
mira (miranda) | mean viability with MMS = 3.71e6; viability with MMS, replicate 1 = 4.17e6
qm (quemao) | mean viability with MMS = 3.71e6; viability with MMS, replicate 1 = 4.29e6
CG2961 | mean viability with MMS = 3.49e6; viability with MMS, replicate 1 = 3.99e6
CG31805 | mean viability with MMS = 3.49e6; viability with MMS, replicate 1 = 3.96e6

Reprinted from the entries so far for reference:
mira (miranda) | mean viability with MMS = 3.71e6; viability with MMS, replicate 1 = 4.17e6
qm (quemao) | mean viability with MMS = 3.71e6; viability with MMS, replicate 1 = 4.29e6
